# PMC7645262
# Protein sequences, listed by entry. Tags and fused reporters are not part of them. Residues count along the entry.
# UniProt Q03431, residues 27-593: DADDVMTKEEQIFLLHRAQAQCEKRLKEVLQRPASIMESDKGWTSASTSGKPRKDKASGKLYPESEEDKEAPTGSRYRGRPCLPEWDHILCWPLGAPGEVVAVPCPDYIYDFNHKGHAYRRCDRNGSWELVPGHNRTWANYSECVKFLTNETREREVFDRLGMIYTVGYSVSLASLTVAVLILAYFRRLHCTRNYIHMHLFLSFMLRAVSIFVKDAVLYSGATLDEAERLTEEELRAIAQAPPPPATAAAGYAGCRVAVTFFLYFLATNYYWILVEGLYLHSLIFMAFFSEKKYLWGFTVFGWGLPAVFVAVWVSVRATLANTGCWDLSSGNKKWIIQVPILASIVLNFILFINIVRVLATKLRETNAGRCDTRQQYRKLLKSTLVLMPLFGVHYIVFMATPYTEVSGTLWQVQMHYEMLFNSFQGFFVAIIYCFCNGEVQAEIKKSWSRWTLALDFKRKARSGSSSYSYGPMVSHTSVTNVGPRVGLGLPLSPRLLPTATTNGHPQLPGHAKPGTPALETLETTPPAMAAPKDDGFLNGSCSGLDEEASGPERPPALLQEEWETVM
# UniProt P17870: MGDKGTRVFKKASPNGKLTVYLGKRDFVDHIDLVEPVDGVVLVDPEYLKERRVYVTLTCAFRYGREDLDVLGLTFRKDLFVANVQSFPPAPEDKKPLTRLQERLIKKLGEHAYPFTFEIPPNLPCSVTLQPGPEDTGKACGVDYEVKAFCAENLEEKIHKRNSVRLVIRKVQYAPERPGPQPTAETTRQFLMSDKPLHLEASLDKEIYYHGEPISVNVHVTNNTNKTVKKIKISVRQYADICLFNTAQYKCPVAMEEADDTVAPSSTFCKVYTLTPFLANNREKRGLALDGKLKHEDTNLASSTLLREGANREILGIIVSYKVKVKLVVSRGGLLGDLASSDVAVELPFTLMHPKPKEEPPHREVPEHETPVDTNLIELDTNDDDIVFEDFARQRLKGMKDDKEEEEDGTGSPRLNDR
# UniProt P32120: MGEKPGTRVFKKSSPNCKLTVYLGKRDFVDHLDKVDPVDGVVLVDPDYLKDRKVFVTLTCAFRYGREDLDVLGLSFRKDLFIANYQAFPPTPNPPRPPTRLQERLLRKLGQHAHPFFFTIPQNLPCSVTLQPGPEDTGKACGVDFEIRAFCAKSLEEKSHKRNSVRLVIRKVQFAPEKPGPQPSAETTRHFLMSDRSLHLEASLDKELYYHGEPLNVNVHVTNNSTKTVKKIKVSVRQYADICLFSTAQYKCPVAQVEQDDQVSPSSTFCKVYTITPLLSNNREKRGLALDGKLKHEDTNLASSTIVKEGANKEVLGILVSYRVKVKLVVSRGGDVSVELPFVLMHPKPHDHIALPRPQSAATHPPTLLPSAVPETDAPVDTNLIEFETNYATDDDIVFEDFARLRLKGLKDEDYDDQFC
# These are yes or no findings as the source states them, for the method shown. In cells and extracts the contact can be indirect. Some binding calls cover weakened binding; strength is not graded here.
# Biological target: PTH1R-LgBiT (UniProt Q03431)
# Assay: split reporter; NanoBiT complementation in live HEK293T cells, SmBiT-βarr1/2 (or Bpa variants) with PTH1R-LgBiT; 200 nM PTH(1-34), luminescence monitored 45 min at 37°C
row,binding,Substance
1,binds,SmBiT-βarr1 (from UniProt P17870 1-418)
2,binds,SmBiT-βarr2 (from UniProt P32120 1-420)
